# Screening data

Source: PubChem BioAssay AID1159506 (NCATS, 2015).

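Luminescence from an EWS-FLI1 target-promoter (NR0B1) reporter, set against a CMV-promoter reporter, two days after silencing single genes in TC32 Ewing sarcoma cells.
Each siRNA was applied at 20 nM.
A z-score of the log NR0B1-over-CMV signal, less the median of siRNAs with the same seed; more negative means a stronger specific loss of the NR0B1 reporter.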

The strongest results of the screen are mostly left out here.
Sequences are the guide (antisense) strand, without overhang.

For UAAUCGAUUAAGUUCAGGC against MRPL1 the result was seed-corrected z-score 0.2784. Result for UGUAAAUUCUCGUCACUUC against FOLH1B was seed-corrected z-score -0.1682. AGAGGCACAAGUCACAGUC against C19orf24 gave seed-corrected z-score 1.115. Result for AAUUGAUUCAAGUUCGUGG against NEK11 was seed-corrected z-score 0.8811. For UUACUUAUGAACCUGACUG against IYD the result was seed-corrected z-score -0.9005. Result for UAGCCGGUCACAUUGCAGG against IGSF8 was seed-corrected z-score -0.6813. AAAGUUAUCGUGAAAAGAA against KRTAP9-3 read seed-corrected z-score 0.6336. With CACCGUGCAAUUCACAAUG against LYPD1 the assay gave seed-corrected z-score -1.269.

Result for UUUGCAAACAUCUUGAGGC against IMP4 was seed-corrected z-score 0.456. Result for UGAUAAUCAACAGUUGACC against XKR9 was seed-corrected z-score -0.6129. UCCAUUGGUACCUAGAUGC against OTUD7B gave seed-corrected z-score -0.516. AUUGAUAAACUGGACAAGC against ABCA17P gave seed-corrected z-score 0.7015. For AAUUGCAACAUCUGAAGGC against ZNF700 the result was seed-corrected z-score -0.1783. UCAAUGGUCAACUGACUGG against BRF1 read seed-corrected z-score -0.1328. Result for UCUUCAUCCGCCUUAAGCU against NUTF2 was seed-corrected z-score 0.1277. UCGCCUUUCAAUCUCUUCC against CALD1 read seed-corrected z-score -0.03656.

UUAUGAUCAUCGCCUUUCC against PRPF18 gave seed-corrected z-score -0.3038. With AUACGAAGGAGCAAUAUCC against SLC17A5 the assay gave seed-corrected z-score -0.4408. UUUGGGAUACGAUUCUGGG against SHD gave seed-corrected z-score -0.06074. UUCCAUCAUUAACUUGUUC against IQCJ gave seed-corrected z-score -1.41. UCCGCUAUCACCUUAGCUG against DPYS gave seed-corrected z-score -0.8187. UCACAUAUCCCUCUGCGUC against MOSPD3 gave seed-corrected z-score 0.09304. For UCAUGAACCUUUUCCAUGC against CATSPER4 the result was seed-corrected z-score 0.1386. UUUGCUGUCAGGCUUGACC against CDK19 gave seed-corrected z-score 1.096.

Result for UUGCGUACAAUCUUCCUUU against FGF6 was seed-corrected z-score 0.3545. Result for UCUAUGACUGAGGAAACCU against PARD6A was seed-corrected z-score -0.262. Result for UCUAUGAUCAGCGAAGCCC against FRMD4A was seed-corrected z-score 0.03007. With AAACGGUCACGGUCAGGGU against MT2A the assay gave seed-corrected z-score -0.1825. For UUCAUGUUUCCUAAUCGCC against PRKX the result was seed-corrected z-score 0.02552. Result for UGAACAGUUGGGACACCGC against C9orf50 was seed-corrected z-score 0.1893. With UGCUUCUCGACUUCUCUCU against LINC00521 the assay gave seed-corrected z-score -0.7218. With UGUGAUGUAAAGUAGGCCC against TMX2 the assay gave seed-corrected z-score -0.6439.

Result for UUCCGGACCACGUUGAUCC against AQP6 was seed-corrected z-score 0.1956. Result for UGAAGCUCAAGUGCAAGCC against NAV1 was seed-corrected z-score 0.3687. For UAAGCUGCUGAUGACGUAC against ATCAY the result was seed-corrected z-score -0.8309. AAAUUUGUAAAUGGUGGAG against GTF3C5 gave seed-corrected z-score -0.6937. With UGACGAAUUUCUUAAUGGC against RPS26P31 the assay gave seed-corrected z-score 2.13. UUCCACGCAAGAAAUGGGC against FOPNL gave seed-corrected z-score -0.2749. Result for UCAAGGUAUGCAUCGGUGG against MYL8P was seed-corrected z-score -0.1063. For UGUCUGACAAGUGACAGGG against DHX9 the result was seed-corrected z-score 0.4427.

UCAUUGAAGCUACAAGACC against TAS1R1 read seed-corrected z-score 0.6093. UUCCAUAUCGGGAUAGUUG against KLF12 read seed-corrected z-score 0.02773. UGUUGGUACAUGGUCCCGU against CHRDL2 gave seed-corrected z-score -1.651. With UGAGAUCACAGGUGAAGUG against LINC01548 the assay gave seed-corrected z-score -0.2637.

Some entries from above, unchanged:

Sequence	target gene	seed-corrected z-score
UGACGAAUUUCUUAAUGGC	RPS26P31	2.13
UCACAUAUCCCUCUGCGUC	MOSPD3	0.09304